Experimental data taken from publication PMC12077264.
Changes are numbered by the printed parent chain. These are yes or no findings as the source states them, for the method shown. Binding calls can cover weak binding; strength is not graded here. Where a sequence is shown, tags or fusion partners need not be part of it. For part of these data: In cells and extracts the contact can be indirect.

The chains behind the UniProt entries cited, without tags or fusion partners. Where a name states a change or a piece, a line headed by the entry shows the natural chain unless it says otherwise.
UniProt P69490: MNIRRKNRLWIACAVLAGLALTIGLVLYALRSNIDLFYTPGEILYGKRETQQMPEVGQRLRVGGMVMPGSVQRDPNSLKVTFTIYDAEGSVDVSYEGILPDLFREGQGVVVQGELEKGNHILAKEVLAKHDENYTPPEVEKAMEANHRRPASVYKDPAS

Assays:
[1] = target: T1, CcmD:flag (wild type), in GST:CcmC(D:flag)E(H130A) (E. coli) (UniProt P0ABM5); assay: complex retained on SDS-PAGE, immunoblots; ~25 kDa band in GST affinity purified GST:CcmC(D:flag)E(H130A); 12.5% SDS-PAGE, Coomassie, α-FLAG and α-CcmE immunoblots
T1 sequence: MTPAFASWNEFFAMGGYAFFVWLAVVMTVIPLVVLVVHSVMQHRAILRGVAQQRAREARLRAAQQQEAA

[2] = target: T2, GST:CcmC(I143C), in GST:CcmCDE(H130A) (E. coli) (UniProt P0ABM1); assay: pull-down; GST affinity purification via the N-terminal GST tag on CcmC of co-expressed GST:CcmCDE(H130A) or GST:CcmC(D:flag)E(H130A) from E. coli; 5 ug affinity purified protein on SDS-PAGE, Coomassie stain and α-GST, α-CcmE, α-FLAG immunoblots
T2 sequence: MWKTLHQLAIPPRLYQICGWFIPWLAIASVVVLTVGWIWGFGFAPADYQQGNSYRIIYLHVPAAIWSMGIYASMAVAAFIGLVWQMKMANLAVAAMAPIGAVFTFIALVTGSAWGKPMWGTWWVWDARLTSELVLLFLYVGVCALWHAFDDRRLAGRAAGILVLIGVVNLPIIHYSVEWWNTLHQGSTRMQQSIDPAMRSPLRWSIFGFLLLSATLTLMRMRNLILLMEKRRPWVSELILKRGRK

[3] = target: T3, GST:CcmC(I70C), in GST:CcmCDE(H130A) (E. coli) (UniProt P0ABM1); assay: as above
T3 sequence: T2 sequence with I70C, C143I

binding [1]: binds | binding [2]: binds | binding [3]: binds
Substance: CcmE(H130A) (from UniProt P69490)
